In one experiment the test system is NCI-H358 (K-Ras G12C). As to the kind of experiment: CellTiter-Glo cell viability assay, NCI-H358. It counts as cell-based, human. As to conditions: read-out: H358 Cell Viability assay data (K-Ras G12C, IC50); 5-day treatment. In general terms: In ATP-based viability assays light output follows the ATP content of the culture.
The next experiment has as its target KRAS G12C (Homo sapiens (Human), UniProt P01116+P62937, G12C). As to the kind of experiment: Ras-Raf disruption/FRET/MOA assay (BRAF RBD, Cyclophilin A). The class given is biochemical.
The target of the next experiment is KRAS G13C (Homo sapiens (Human), UniProt P01116+P62937, G13C). Described as above. It counts as biochemical.
For the next experiment, the target named is KRAS Q61H (Homo sapiens (Human), UniProt P01116+P62937, Q61H). Described as above. It counts as biochemical. Particulars: read-out: KRAS Q61H FRET IC50.
Another experiment concerns the target KRAS G12V (Homo sapiens (Human), UniProt P01116+P62937, G12V). The experiment is described as above. The class given is biochemical.
For another experiment, the target named is KRAS G12D (Homo sapiens (Human), UniProt P01116+P62937, G12D). The description is as above. The class given is biochemical.
For another experiment, the target named is KRAS G12S (Homo sapiens (Human), UniProt P01116+P62937, G12S). Described as above. The class given is biochemical. Particulars: read-out: KRAS G12S FRET IC50.
Experiment [1] concerns NCI-H358 cells (K-Ras G12C). Kind of experiment: CellTiter-Glo cell viability, NCI-H358. As to conditions: read-out: H358 Cell Viability IC50. It counts as cell-based, human.
For experiment [2], the target named is KRAS WT binding to BRAF RBD (Homo sapiens (Human), UniProt P01116+P62937). As to the kind of experiment: Ras-Raf disruption/FRET/MOA assay, KRAS WT. The class given is biochemical. Particulars: read-out: KRAS WT FRET IC50.
The target in experiment [3] is KRAS G12S binding to BRAF RBD (Homo sapiens (Human), UniProt P01116+P62937, G12S). As to the kind of experiment: Ras-Raf disruption/FRET/MOA assay, KRAS G12S. It counts as biochemical. As to conditions: read-out: KRAS G12S FRET IC50.
The test system of experiment [4] is Capan-1 cells (K-Ras G12V). As to the kind of experiment: CellTiter-Glo cell viability, Capan-1. The class given is cell-based, human. Particulars: read-out: Capan-1 Cell Viability IC50, 5-day treatment.
Experiment [5] has as its system K-Ras G12C (NCI-H358 cells). As to the kind of experiment: Potency assay: pERK in NCI-H358 cells. As to conditions: read-out: pERK EC50 (H358 KRAS G12C), 4 hours. It counts as cell-based, human.
The target of the next experiment is KRAS G13D (Homo sapiens (Human), UniProt P01116+P62937, G13D). As to the kind of experiment: Ras-Raf disruption/FRET/MOA assay (BRAF RBD, Cyclophilin A). It counts as biochemical. As to conditions: read-out: FRET G13D IC50.
Experiment [6] concerns AsPC-1 cells (K-Ras G12D). Kind of experiment: Potency assay: pERK, AsPC-1. It counts as cell-based. Particulars: read-out: ASPC-1 pERK EC50.
Experiment [7] deals with NCI-H358 cells (K-Ras G12C). Kind of experiment: Potency assay: pERK, NCI-H358. It counts as cell-based. As to conditions: read-out: H358 pERK EC50.
For experiment [8], the system named is Capan-1 cells (K-Ras G12V). As to the kind of experiment: Potency assay: pERK, Capan-1. Particulars: read-out: Capan-1 pERK EC50. The class given is cell-based.
The target in experiment [9] is K-Ras G12C(GMP-PNP) binding to BRAF RBD (Homo sapiens (Human), UniProt P01116+P62937, G12C). Kind of experiment: Disruption of BRAF RBD interaction with K-Ras (FRET / MOA assay), K-Ras G12C. As to conditions: read-out: KRAS G12C FRET IC50. It counts as biochemical.
In experiment [10] the target is KRAS G12V binding to BRAF RBD (Homo sapiens (Human), UniProt P01116+P62937, G12V). As to the kind of experiment: Ras-Raf disruption/FRET/MOA assay, KRAS G12V. It counts as biochemical. Particulars: read-out: KRAS G12V FRET IC50.

The chains behind the UniProt entries cited, without tags or fusion partners. Where a name states a change or a piece, a line headed by the entry shows the natural chain unless it says otherwise. A line that says so, or that is headed by a name, gives the form on record, which may keep a tag or linker. Residues count along the entry.
UniProt P01116, 1-164 with tags or gaps G12V limits assumed: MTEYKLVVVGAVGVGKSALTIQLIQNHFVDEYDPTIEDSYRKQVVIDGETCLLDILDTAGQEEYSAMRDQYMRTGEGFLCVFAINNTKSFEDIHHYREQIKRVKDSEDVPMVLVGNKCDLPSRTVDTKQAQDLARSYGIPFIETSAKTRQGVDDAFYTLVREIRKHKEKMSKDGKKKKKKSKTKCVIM
UniProt P01116, 1-169 isoform 2 G12C limits assumed: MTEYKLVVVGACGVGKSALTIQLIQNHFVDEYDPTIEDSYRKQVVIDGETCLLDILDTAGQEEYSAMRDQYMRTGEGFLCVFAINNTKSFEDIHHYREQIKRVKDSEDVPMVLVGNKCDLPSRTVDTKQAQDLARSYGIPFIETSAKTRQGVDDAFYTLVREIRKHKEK
UniProt P01116, 1-164 with tags or gaps G12D limits assumed: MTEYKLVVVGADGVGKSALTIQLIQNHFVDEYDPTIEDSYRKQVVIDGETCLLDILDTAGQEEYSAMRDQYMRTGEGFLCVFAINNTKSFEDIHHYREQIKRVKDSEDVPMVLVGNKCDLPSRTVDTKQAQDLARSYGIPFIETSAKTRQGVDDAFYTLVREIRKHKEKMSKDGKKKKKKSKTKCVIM
UniProt P01116, 1-164 with tags or gaps G12S limits assumed: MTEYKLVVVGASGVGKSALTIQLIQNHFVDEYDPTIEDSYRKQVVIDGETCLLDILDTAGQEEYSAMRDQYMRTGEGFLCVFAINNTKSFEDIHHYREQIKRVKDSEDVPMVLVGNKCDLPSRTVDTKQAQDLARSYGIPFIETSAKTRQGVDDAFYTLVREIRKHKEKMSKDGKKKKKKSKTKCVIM
UniProt P01116, 1-164 with tags or gaps G13C limits assumed: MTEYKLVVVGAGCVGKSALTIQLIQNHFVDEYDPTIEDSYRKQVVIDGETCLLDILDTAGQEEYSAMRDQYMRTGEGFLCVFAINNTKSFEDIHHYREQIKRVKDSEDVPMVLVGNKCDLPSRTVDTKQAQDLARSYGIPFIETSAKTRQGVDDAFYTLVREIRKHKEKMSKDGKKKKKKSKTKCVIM
UniProt P01116, 1-164 with tags or gaps Q61H limits assumed: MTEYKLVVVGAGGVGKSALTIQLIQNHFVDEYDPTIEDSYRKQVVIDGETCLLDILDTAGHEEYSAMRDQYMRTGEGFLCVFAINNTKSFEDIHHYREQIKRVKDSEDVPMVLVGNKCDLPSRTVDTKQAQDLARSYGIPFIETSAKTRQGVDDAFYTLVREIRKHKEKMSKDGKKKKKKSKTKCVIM
UniProt P01116, 1-164 with tags or gaps limits assumed: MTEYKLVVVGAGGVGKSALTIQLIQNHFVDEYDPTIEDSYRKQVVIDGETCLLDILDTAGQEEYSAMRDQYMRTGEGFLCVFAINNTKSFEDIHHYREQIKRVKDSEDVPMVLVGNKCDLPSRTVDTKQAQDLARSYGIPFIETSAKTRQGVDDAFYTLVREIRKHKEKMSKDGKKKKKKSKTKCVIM
UniProt P01116, 1-164 with tags or gaps G12C limits assumed: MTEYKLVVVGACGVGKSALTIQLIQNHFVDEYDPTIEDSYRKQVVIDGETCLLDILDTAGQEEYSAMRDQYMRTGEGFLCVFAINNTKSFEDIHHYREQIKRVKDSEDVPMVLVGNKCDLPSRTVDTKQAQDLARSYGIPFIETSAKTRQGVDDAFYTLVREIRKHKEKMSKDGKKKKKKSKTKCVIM
UniProt P01116, 1-164 with tags or gaps G13D limits assumed: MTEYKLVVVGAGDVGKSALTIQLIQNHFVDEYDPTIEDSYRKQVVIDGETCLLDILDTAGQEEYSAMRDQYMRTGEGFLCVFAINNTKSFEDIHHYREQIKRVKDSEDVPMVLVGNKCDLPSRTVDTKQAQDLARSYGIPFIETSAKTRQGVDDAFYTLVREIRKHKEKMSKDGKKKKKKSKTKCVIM
UniProt P62937, whole entry: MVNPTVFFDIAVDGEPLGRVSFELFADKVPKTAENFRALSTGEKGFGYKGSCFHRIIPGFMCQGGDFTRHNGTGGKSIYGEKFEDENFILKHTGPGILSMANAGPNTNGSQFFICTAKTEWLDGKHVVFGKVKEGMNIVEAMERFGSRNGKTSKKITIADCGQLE

Where two headings read alike, the source gives them in different places. The structures given here were assigned with low confidence; some may be wrong.

The text below walks through data of US20250195521A1 (Revolution Medicines, Inc., priority 2020, published 2025).

For the molecule `CCn1c(-c2cccnc2[C@H](C)OC)c2c3cc(ccc31)-c1csc(n1)C[C@H](NC(=O)[C@H](C(C)C)N(C)C(=O)N1CCC3(CC1)CN(C)CCO3)C(=O)N1CCC[C@H](N1)C(=O)OCC(C)(C)C2`, the IC50 lay within 10 to 100 nM with NCI-H358 (K-Ras G12C); 100 to 1000 nM on KRAS G12C (read-out: KRAS G12C FRET IC50); 100 to 1000 nM at KRAS G13C (read-out: KRAS G13C FRET IC50); 100 to 1000 nM on KRAS Q61H; 100 to 1000 nM on KRAS G12V (read-out: KRAS G12V FRET IC50); 1000 to 10000 nM at KRAS G12D (read-out: KRAS G12D FRET IC50). Also, the IC50 on KRAS G12S lay in the range of 100 to 1000 nM; in experiment [1] (K-Ras G12C, 5-day treatment), 10 to 100 nM; in experiment [2], 10 to 100 nM; in experiment [3], 10 to 100 nM; in experiment [4], 10 to 100 nM. In experiment [5], the EC50 is < 5000 nM.

`CCn1c(-c2cccnc2[C@H](C)OC)c2c3cc(ccc31)-c1cc(O)cc(c1)C[C@H](NC(=O)[C@H](C(C)C)N(C)C(C)=O)C(=O)N1CCC[C@H](N1)C(=O)OCC(C)(C)C2`: the IC50 in the experiment with NCI-H358 (K-Ras G12C) was 100 to 1000 nM; on KRAS G12C (read-out: FRET G12C IC50) it was 128 nM; at KRAS G12C (read-out: KRAS G12C FRET IC50), 100 to 1000 nM; at KRAS G13C (read-out: FRET G13C IC50), 97 nM; on KRAS G13C (read-out: KRAS G13C FRET IC50), 10 to 100 nM; on KRAS G13D, 235 nM. The IC50 is 10 to 100 nM at KRAS Q61H; 197 nM at KRAS G12V (read-out: FRET G12V IC50); 100 to 1000 nM at KRAS G12V (read-out: KRAS G12V FRET IC50); 1290 nM on KRAS G12D (read-out: FRET G12D IC50); 1000 to 10000 nM at KRAS G12D (read-out: KRAS G12D FRET IC50); 100 to 1000 nM on KRAS G12S. The IC50 is 226 nM in [1]; 100 to 1000 nM in experiment [1] (K-Ras G12C, 5-day treatment); 100 to 1000 nM in [4]. Besides, the EC50 in experiment [6] is 706 nM; in [7] it was 64 nM; in experiment [5], < 5000 nM; in experiment [8], 52 nM.

With `CCn1c(-c2cccnc2[C@H](C)OC)c2c3cc(ccc31)-c1csc(n1)C[C@H](NC(=O)[C@H](C(C)C)N(C)C(=O)N1CC[C@H]1C)C(=O)N1CCC[C@H](N1)C(=O)OCC(C)(C)C2`, the IC50 lay in the range of 10 to 100 nM in the experiment on NCI-H358 (K-Ras G12C); 100 to 1000 nM at KRAS G12C (read-out: KRAS G12C FRET IC50); 1000 to 10000 nM at KRAS G13C (read-out: KRAS G13C FRET IC50); 100 to 1000 nM on KRAS Q61H; 1000 to 10000 nM on KRAS G12V (read-out: KRAS G12V FRET IC50); 1000 to 10000 nM at KRAS G12D (read-out: KRAS G12D FRET IC50). Besides, the IC50 on KRAS G12S lay in the range of 1000 to 10000 nM; in experiment [1] (K-Ras G12C, 5-day treatment), 10 to 100 nM; in experiment [4], 100 to 1000 nM; in experiment [9], 10 to 100 nM; in experiment [10], 10 to 100 nM. Also, the EC50 in experiment [5] was < 5000 nM.
